# Source: the supplement of paper PMC10849652
# By UniProt entry, the sequences of proteins in these tests, tags left out. Where a name states a change or a piece, a line headed by the entry shows the natural chain unless it says otherwise.
# UniProt O15118: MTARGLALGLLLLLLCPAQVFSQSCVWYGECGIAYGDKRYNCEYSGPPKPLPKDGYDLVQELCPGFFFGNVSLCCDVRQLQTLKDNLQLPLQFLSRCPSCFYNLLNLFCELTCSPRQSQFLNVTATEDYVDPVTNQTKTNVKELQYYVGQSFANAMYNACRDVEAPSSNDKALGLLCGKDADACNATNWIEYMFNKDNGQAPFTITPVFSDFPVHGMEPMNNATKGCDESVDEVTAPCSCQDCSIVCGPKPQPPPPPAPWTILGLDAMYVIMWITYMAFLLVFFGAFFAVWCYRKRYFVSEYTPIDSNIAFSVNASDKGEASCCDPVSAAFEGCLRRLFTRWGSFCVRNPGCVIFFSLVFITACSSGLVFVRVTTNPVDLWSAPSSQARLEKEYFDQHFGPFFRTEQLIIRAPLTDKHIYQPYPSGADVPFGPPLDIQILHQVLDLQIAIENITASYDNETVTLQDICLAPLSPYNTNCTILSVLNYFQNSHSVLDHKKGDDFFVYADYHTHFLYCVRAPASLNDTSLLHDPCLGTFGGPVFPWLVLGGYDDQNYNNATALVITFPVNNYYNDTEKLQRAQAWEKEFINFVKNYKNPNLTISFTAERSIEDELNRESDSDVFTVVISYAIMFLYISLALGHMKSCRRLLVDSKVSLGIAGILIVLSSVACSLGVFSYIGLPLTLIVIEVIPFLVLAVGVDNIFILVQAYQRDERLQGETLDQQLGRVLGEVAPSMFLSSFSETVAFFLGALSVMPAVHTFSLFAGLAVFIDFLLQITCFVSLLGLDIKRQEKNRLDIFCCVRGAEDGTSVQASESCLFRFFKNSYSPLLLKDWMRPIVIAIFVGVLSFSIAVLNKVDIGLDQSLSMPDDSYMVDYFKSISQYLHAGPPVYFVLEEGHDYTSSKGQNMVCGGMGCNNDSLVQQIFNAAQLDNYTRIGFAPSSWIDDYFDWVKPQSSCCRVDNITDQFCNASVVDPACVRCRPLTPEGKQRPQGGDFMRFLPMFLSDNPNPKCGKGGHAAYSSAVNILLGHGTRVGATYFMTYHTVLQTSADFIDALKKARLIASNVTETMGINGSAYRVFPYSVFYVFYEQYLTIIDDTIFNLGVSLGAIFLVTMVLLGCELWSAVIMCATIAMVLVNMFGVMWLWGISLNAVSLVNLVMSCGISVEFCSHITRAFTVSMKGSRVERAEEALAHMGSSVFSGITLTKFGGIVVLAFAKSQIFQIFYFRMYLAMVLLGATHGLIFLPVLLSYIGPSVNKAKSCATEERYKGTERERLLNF
# UniProt Q9H8H0: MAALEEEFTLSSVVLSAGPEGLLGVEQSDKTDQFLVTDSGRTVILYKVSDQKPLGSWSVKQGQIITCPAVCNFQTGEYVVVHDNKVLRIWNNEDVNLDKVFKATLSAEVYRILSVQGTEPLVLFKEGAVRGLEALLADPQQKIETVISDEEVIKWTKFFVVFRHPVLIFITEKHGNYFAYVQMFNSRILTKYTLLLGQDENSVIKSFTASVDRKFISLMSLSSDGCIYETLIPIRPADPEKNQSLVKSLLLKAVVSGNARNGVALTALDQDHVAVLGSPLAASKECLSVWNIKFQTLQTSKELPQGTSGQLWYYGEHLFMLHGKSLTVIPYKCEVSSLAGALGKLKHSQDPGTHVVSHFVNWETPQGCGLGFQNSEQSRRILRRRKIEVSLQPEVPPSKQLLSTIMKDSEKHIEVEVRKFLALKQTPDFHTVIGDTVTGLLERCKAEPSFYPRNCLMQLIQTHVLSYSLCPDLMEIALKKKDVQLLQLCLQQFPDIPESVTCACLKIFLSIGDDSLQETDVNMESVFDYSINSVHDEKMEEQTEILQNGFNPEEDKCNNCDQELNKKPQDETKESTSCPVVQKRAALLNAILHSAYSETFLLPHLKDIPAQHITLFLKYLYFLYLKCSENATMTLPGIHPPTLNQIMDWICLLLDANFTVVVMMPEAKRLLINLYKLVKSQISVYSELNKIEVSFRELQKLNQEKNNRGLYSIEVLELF
# UniProt Q15233: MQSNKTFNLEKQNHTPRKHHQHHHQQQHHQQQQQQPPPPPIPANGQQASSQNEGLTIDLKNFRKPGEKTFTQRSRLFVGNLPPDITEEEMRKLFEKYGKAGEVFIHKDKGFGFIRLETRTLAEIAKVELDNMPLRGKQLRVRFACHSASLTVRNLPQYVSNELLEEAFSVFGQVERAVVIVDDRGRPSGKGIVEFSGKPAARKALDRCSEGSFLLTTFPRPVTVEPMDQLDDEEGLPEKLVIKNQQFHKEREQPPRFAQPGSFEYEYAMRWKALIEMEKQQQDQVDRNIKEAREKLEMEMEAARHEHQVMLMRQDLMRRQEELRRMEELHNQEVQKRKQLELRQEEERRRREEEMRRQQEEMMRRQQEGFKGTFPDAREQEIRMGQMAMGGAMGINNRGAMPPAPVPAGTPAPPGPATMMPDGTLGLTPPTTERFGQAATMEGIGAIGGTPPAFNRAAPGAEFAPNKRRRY
# UniProt P29474: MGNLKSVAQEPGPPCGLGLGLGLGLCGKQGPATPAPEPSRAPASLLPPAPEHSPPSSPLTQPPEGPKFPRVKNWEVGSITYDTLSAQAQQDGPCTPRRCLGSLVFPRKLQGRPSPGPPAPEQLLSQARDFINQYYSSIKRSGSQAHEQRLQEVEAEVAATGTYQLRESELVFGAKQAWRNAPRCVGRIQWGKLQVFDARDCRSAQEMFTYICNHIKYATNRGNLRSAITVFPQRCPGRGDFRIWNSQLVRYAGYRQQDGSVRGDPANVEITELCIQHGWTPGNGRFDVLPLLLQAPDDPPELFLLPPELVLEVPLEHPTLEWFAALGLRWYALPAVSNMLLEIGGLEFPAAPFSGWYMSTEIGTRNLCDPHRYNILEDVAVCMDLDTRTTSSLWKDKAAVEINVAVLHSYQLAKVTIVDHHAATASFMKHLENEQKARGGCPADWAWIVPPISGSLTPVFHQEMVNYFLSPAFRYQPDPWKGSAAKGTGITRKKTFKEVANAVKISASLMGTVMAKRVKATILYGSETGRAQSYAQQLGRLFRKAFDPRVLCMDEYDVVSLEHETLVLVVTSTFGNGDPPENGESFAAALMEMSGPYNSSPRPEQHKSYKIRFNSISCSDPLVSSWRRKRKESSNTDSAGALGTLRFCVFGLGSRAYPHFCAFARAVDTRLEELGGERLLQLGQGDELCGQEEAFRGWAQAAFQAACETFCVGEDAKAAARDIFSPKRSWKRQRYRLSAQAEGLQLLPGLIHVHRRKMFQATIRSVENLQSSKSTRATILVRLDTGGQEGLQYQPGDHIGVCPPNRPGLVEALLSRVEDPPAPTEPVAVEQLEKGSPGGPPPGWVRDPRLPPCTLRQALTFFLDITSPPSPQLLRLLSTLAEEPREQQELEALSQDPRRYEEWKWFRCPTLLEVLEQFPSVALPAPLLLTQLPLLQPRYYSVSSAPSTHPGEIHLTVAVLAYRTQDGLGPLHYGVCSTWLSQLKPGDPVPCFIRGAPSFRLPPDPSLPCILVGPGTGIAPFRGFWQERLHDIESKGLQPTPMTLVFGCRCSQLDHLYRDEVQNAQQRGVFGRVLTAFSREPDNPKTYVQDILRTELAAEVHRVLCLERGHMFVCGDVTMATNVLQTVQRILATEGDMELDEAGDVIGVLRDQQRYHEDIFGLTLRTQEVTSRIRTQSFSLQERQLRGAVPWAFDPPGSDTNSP
# UniProt Q6ZVK8: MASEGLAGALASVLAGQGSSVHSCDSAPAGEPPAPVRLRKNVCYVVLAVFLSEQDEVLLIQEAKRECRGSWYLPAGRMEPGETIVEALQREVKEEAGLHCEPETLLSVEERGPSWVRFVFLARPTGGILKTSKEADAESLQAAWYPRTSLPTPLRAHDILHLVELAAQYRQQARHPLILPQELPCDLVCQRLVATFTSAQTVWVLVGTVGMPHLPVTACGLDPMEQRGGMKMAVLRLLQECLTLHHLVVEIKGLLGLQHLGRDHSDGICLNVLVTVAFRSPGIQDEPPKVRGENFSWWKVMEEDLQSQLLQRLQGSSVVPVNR
# UniProt Q9UGY1: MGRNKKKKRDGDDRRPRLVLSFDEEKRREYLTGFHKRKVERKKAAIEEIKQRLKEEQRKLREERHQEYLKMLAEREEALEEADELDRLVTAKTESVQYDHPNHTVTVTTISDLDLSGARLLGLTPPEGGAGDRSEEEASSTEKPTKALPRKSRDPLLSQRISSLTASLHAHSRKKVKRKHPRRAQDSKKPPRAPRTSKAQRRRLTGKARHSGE
# UniProt P16083: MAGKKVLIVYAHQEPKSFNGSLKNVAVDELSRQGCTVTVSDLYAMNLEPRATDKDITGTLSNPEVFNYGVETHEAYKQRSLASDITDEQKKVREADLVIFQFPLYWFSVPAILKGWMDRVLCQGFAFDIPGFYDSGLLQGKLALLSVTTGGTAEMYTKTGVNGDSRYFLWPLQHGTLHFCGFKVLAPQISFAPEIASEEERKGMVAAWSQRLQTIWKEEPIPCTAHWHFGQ
# UniProt Q08J23, whole entry, looked up: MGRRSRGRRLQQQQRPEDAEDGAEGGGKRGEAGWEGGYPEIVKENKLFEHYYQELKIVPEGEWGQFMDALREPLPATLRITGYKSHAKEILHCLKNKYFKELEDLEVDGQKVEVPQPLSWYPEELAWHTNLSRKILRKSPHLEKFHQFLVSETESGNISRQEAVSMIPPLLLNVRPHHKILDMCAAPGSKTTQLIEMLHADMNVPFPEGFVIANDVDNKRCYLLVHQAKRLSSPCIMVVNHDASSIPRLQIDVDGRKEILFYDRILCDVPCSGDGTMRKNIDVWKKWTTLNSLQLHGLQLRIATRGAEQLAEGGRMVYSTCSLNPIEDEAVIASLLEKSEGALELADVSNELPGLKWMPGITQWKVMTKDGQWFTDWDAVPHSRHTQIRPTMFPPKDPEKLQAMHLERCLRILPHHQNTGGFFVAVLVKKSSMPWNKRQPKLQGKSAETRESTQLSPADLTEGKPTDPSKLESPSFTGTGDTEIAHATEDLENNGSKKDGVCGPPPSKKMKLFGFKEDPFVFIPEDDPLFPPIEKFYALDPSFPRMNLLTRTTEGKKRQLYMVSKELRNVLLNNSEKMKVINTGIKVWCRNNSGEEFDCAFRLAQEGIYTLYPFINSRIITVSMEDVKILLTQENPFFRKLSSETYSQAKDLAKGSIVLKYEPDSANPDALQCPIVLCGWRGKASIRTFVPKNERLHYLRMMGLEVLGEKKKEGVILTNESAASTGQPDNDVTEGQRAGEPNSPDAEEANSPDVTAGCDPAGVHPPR
# UniProt Q9NXX6: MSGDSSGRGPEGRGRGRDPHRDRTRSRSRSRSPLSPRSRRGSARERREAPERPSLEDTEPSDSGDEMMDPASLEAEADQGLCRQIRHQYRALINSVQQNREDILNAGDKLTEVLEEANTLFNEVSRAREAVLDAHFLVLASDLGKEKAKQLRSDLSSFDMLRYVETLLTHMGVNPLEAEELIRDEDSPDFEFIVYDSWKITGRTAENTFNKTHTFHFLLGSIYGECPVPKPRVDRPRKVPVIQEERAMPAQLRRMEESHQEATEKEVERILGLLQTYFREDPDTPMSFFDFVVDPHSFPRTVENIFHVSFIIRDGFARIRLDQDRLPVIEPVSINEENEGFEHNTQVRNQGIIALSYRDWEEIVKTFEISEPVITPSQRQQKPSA
# UniProt Q9H0G5: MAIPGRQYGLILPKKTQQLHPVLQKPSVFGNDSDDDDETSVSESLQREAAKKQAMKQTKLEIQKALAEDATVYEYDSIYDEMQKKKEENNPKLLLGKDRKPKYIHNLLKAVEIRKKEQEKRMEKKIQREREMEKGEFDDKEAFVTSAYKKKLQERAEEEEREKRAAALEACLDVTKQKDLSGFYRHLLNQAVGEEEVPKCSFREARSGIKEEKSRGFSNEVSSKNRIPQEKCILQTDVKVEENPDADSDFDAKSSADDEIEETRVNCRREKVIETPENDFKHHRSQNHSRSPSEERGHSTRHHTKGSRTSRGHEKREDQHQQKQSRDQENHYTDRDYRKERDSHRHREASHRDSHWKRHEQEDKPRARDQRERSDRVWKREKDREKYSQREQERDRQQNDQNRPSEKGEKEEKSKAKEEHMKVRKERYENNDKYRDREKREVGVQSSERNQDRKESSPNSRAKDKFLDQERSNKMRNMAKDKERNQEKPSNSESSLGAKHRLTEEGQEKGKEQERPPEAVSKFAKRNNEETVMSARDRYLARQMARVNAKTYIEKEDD
# UniProt Q86WQ0: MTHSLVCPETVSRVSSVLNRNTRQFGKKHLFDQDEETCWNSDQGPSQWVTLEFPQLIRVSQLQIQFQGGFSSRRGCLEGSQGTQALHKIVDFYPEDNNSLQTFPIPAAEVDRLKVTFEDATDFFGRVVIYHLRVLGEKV
# The list shows a part of the results.
# Legend:
# Assay in all cases: log2 fold change, soluble protein after heating vs DMSO (PISA); higher = thermal stabilisation; K562 lysate, 10 uM; active = over 0.2 and 3.5 SD of the protein, either way, in both replicates (recomputed)
# [1] = compound: NCC(=O)Nc1ccc(-n2nc(C(F)(F)F)cc2-c2ccc3c(ccc4ccccc43)c2)cc1
# In short: (§1)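 K562 pellets were dounce-homogenised in PBS pH 7.4 with 1 mM MgCl2, and the crude extract at 1 mg/mL protein was treated with 10 μM compound for 30 min. Aliquots were heated for 3 min across 48°C-58°C, pooled, and brought to 0.5% NP-40 at 4°C; soluble protein was the supernatant after 21,000xg for 90 min. Soluble protein was quantified by TMTpro 16plex LC-MS/MS with channel sums equalised, and reported as log2 fold change in thermal stability against DMSO controls, with values from duplicates.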
# vorinostat = compound: O=C(CCCCCCC(=O)Nc1ccccc1)NO [vorinostat]
# In short: as §1
# silmitasertib = compound: O=C(O)c1ccc2c(c1)nc(Nc1cccc(Cl)c1)c1ccncc12 [silmitasertib]
# In short: as §1
# [2] = compound: O=C1NC(=O)C(c2cnc3ccccn23)=C1c1cn2c3c(cc(F)cc13)CN(C(=O)N1CCCCC1)CC2
# In short: as §1
# entospletinib = compound: c1cn2cc(-c3ccc4cn[nH]c4c3)nc(Nc3ccc(N4CCOCC4)cc3)c2n1 [entospletinib]
# In short: as §1
Target,log2 fold change [1],log2 fold change (vorinostat),log2 fold change (silmitasertib),log2 fold change [2],log2 fold change (entospletinib)
NOL3 isoform 3 (UniProt O60936),inactive: 0.013,inactive: 0.002,inactive: -0.092,inactive: -0.119,–
NSUN4 (UniProt Q96CB9),inactive: -0.034,inactive: -0.123,inactive: 0.089,inactive: 0.046,–
NUDT21 (UniProt O43809),inactive: -0.024,inactive: 0.137,inactive: -0.039,inactive: -0.038,inactive: -0.007
NSUN6 (UniProt Q8TEA1),inactive: 0.051,inactive: -0.132,inactive: 0.003,inactive: 0.025,inactive: 0.01
NPC1 (UniProt O15118),inactive: -0.028,inactive: 0.121,inactive: -0.019,inactive: -0.01,inactive: -0.013
NOL11 (UniProt Q9H8H0),inactive: 0.01,inactive: -0.171,inactive: 0.191,inactive: -0.005,inactive: 0.013
NOTCH1 (UniProt P46531),inactive: -0.125,inactive: 0.118,inactive: 0.021,inactive: 0.014,inactive: 0.008
NUDC (UniProt Q9Y266),inactive: 0.007,inactive: 0.052,inactive: -0.007,inactive: -0.025,inactive: -0.014
NSL1 (UniProt Q96IY1),inactive: -0.012,active: -0.528,inactive: -0.022,inactive: -0.005,inactive: 0.03
NONO (UniProt Q15233),inactive: 0.013,active: -0.355,inactive: 0.027,inactive: -0.007,inactive: 0
NSUN5 isoform 2 (UniProt Q96P11),inactive: -0.007,inactive: -0.173,inactive: 0.068,inactive: 0.001,inactive: -0.025
NOS3 (UniProt P29474),inactive: 0.085,inactive: 0.189,inactive: 0.029,–,–
NT5C2 (UniProt P49902),inactive: -0.035,inactive: 0.074,inactive: 0.03,inactive: 0.011,inactive: 0.009
NOP2 isoform 4 (UniProt P46087),inactive: 0.022,inactive: 0.113,inactive: 0.027,inactive: 0.009,inactive: -0.006
NUDT18 (UniProt Q6ZVK8),inactive: 0.136,inactive: 0.016,inactive: -0.063,inactive: 0.054,inactive: 0.103
NSMCE1 (UniProt Q8WV22),inactive: 0.062,inactive: -0.168,inactive: 0.046,inactive: 0.041,inactive: 0
NRF1 isoform 4 (UniProt Q16656),inactive: 0.005,inactive: 0.033,inactive: -0.004,inactive: 0.008,inactive: 0.032
NUDT2 (UniProt P50583),inactive: -0.04,inactive: -0.017,inactive: 0.021,inactive: 0.038,inactive: 0.019
NOL10 (UniProt Q9BSC4),inactive: -0.046,inactive: -0.303,inactive: -0.147,inactive: -0.054,inactive: 0.049
NPEPPS (UniProt P55786),inactive: 0.01,inactive: 0.141,inactive: -0.006,inactive: -0.005,inactive: -0.001
NRDC isoform 2 (UniProt O43847),inactive: -0.016,inactive: 0.005,inactive: -0.012,inactive: -0.003,inactive: 0.006
NUDCD3 (UniProt Q8IVD9),inactive: -0.035,inactive: 0.046,inactive: 0.007,inactive: -0.029,inactive: 0.006
NUDT8 (UniProt Q8WV74),inactive: 0.127,inactive: 0.149,inactive: -0.007,inactive: -0.154,inactive: -0.106
NOL12 (UniProt Q9UGY1),inactive: -0.06,inactive: 0.055,inactive: 0.046,inactive: 0.172,inactive: -0.037
NT5DC3 (UniProt Q86UY8),inactive: 0.001,inactive: 0.117,inactive: 0,inactive: -0.059,inactive: -0.026
NRBP1 (UniProt Q9UHY1),inactive: 0.013,inactive: 0.157,inactive: -0.065,inactive: -0.012,inactive: -0.025
NRBF2 (UniProt Q96F24),inactive: -0.008,inactive: -0.106,inactive: 0.063,inactive: -0.023,inactive: -0.033
NUDCD1 (UniProt Q96RS6),inactive: 0,inactive: -0.02,inactive: 0.009,inactive: 0.012,inactive: 0.012

# Complete entries from above:
# NUDCD3 (UniProt Q8IVD9) is listed as log2 fold change [1]: inactive: -0.035; log2 fold change (vorinostat): inactive: 0.046; log2 fold change (silmitasertib): inactive: 0.007; log2 fold change [2]: inactive: -0.029; log2 fold change (entospletinib): inactive: 0.006
# NUDT2 (UniProt P50583) is listed as log2 fold change [1]: inactive: -0.04; log2 fold change (vorinostat): inactive: -0.017; log2 fold change (silmitasertib): inactive: 0.021; log2 fold change [2]: inactive: 0.038; log2 fold change (entospletinib): inactive: 0.019

# (list continues)

Target,log2 fold change [1],log2 fold change (vorinostat),log2 fold change (silmitasertib),log2 fold change [2],log2 fold change (entospletinib)
NUDT6 (UniProt P53370),inactive: 0.128,inactive: 0.038,inactive: -0.096,inactive: 0.02,inactive: -0.225
NSFL1C isoform 5 (UniProt Q9UNZ2),inactive: -0.004,inactive: 0.158,inactive: -0.034,inactive: -0.021,inactive: 0.028
NMD3 (UniProt Q96D46),inactive: -0.003,inactive: -0.001,inactive: 0.021,inactive: -0.004,inactive: 0.023
NUFIP2 (UniProt Q7Z417),inactive: -0.008,inactive: -0.08,inactive: -0.004,inactive: 0.017,inactive: 0
NUB1 (UniProt Q9Y5A7),inactive: -0.004,active: -0.333,inactive: -0.027,inactive: 0.031,inactive: 0.001
NT5DC1 (UniProt Q5TFE4),inactive: -0.013,inactive: 0.031,inactive: -0.017,inactive: -0.018,inactive: 0.047
NQO2 (UniProt P16083),inactive: -0.03,inactive: 0.113,inactive: 0.016,inactive: -0.053,inactive: 0.016
NNMT (UniProt P40261),inactive: 0.014,inactive: -0.104,inactive: 0.014,inactive: 0.03,inactive: -0.004
NUDT16L1 (UniProt Q9BRJ7),inactive: -0.072,inactive: -0.13,inactive: -0.004,inactive: -0.02,inactive: -0.019
NOLC1 isoform 2 (UniProt Q14978),inactive: -0.001,inactive: 0.146,inactive: 0,inactive: 0.01,inactive: -0.007
NTAN1 (UniProt Q96AB6),inactive: -0.131,inactive: 0.161,inactive: 0.002,inactive: -0.007,inactive: -0.323
NUDT12 (UniProt Q9BQG2),inactive: 0.046,inactive: -0.119,inactive: 0.098,inactive: -0.015,inactive: 0.014
NSUN2 (UniProt Q08J23),inactive: 0.004,active: -0.42,inactive: 0.03,inactive: -0.007,inactive: 0.011
NUBP2 (UniProt Q9Y5Y2),inactive: -0.006,inactive: -0.122,inactive: 0.075,inactive: 0.024,inactive: -0.022
NSMCE4A (UniProt Q9NXX6),inactive: 0,inactive: -0.164,inactive: -0.048,inactive: -0.022,inactive: 0.046
NMT1 (UniProt P30419),active: -0.35,inactive: 0.028,inactive: -0.03,inactive: -0.036,inactive: 0.034
NME6 (UniProt O75414),inactive: 0.045,inactive: 0.062,inactive: -0.01,inactive: -0.022,inactive: -0.12
NSRP1 (UniProt Q9H0G5),inactive: -0.01,inactive: 0.022,inactive: -0.013,inactive: 0.003,inactive: 0.011
NR2C2AP isoform 2 (UniProt Q86WQ0),inactive: 0.021,inactive: -0.101,inactive: 0.029,inactive: -0.029,inactive: -0.066
NMT2 (UniProt O60551),inactive: -0.065,inactive: -0.01,inactive: -0.015,inactive: -0.038,inactive: 0.015
NOB1 (UniProt Q9ULX3),inactive: 0.017,inactive: -0.128,inactive: 0.048,inactive: -0.024,inactive: 0.024
NRAS (UniProt P01111),inactive: -0.049,inactive: 0.124,inactive: -0.001,inactive: -0.011,inactive: -0.012
NT5C3B (UniProt Q969T7),inactive: -0.036,inactive: -0.1,inactive: -0.003,inactive: 0.16,inactive: -0.031
NUBP1 (UniProt P53384),inactive: -0.002,inactive: -0.153,inactive: 0.002,inactive: 0.025,inactive: -0.025
NUB1 isoform 2 (UniProt Q9Y5A7),–,–,–,inactive: -0.068,–
NRIP3 (UniProt Q9NQ35),inactive: -0.033,–,–,–,inactive: -0.032
NOMO1 (UniProt Q15155),–,inactive: 0.138,inactive: 0.148,inactive: 0.018,inactive: -0.156

# A second format for part of the listing above.
Target | log2 fold change [1] | log2 fold change (vorinostat) | log2 fold change (silmitasertib) | log2 fold change [2] | log2 fold change (entospletinib)
NOS3 (UniProt P29474) | inactive: 0.085 | inactive: 0.189 | inactive: 0.029 | – | –
NRDC isoform 2 (UniProt O43847) | inactive: -0.016 | inactive: 0.005 | inactive: -0.012 | inactive: -0.003 | inactive: 0.006
